Results are given in words; binding and its absence hold for the method and conditions named. In cells and extracts the contact can be indirect. Here binding means that the protein was enriched with, or labelled near, the bait; the list need not be complete.
What follows are molecules tested against S-tag Tax-1 (HTLV-1) (UniProt P03409) (assay: affinity purification with mass spectrometry; S-tag pull-down on S-agarose overnight from lysates (passive lysis buffer) of HEK293T cells transfected with S-tag constructs; beads washed four times with RIPA lysis buffer; whole gel lanes analysed by capillary LC-MS/MS).

Protein sequences, listed by entry. Tags and fused reporters are not part of them.
UniProt Q14160: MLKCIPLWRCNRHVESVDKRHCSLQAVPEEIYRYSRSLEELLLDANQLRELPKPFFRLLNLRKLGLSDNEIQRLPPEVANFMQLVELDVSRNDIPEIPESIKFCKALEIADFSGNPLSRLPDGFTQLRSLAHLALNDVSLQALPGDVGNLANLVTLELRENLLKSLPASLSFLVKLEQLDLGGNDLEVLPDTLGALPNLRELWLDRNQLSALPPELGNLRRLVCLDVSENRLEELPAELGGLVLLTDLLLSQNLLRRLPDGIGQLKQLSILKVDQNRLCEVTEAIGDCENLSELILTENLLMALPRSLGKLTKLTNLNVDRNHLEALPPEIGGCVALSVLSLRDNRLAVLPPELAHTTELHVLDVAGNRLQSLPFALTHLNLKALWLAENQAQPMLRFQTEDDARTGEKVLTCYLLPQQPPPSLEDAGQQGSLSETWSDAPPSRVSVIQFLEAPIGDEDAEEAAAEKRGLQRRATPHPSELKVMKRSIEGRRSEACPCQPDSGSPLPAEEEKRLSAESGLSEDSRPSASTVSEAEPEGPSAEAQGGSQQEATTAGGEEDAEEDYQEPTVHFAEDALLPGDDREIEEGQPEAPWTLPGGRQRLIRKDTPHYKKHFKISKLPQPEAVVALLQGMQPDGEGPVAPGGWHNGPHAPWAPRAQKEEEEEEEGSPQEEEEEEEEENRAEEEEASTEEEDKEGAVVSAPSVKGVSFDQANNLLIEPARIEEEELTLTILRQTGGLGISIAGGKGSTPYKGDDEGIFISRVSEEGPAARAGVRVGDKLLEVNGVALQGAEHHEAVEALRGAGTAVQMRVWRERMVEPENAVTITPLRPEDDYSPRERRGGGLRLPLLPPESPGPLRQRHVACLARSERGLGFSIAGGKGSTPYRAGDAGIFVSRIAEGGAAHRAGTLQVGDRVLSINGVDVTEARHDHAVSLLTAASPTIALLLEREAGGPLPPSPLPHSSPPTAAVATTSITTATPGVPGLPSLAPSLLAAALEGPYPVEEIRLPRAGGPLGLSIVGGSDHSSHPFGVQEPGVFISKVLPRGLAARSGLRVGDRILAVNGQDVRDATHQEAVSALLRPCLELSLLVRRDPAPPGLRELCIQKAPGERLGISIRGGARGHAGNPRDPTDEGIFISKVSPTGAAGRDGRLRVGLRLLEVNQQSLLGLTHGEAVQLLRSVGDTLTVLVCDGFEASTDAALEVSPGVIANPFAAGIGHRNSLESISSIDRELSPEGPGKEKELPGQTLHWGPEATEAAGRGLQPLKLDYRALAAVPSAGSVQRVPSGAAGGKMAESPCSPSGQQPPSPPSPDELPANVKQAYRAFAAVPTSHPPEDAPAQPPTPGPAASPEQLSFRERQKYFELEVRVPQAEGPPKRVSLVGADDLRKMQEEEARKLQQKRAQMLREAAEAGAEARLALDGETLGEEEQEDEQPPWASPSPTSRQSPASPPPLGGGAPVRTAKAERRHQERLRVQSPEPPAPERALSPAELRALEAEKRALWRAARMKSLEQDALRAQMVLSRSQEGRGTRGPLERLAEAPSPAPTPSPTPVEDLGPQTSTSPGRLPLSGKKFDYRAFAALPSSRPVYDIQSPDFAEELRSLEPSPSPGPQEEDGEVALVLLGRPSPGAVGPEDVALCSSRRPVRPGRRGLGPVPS
UniProt Q13425: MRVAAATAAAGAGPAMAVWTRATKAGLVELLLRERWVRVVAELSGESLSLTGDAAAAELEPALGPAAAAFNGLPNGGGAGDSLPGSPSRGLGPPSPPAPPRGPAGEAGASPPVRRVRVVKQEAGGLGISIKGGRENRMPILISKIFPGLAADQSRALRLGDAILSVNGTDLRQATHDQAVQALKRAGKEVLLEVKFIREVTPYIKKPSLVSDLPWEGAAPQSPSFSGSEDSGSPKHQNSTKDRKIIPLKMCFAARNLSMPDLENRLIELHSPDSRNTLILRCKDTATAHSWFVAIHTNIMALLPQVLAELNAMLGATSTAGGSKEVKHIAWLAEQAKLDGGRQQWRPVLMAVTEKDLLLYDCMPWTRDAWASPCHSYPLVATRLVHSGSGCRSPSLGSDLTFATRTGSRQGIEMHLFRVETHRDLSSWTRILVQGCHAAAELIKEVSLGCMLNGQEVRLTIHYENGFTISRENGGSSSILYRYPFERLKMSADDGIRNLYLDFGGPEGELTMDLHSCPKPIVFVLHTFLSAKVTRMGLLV
UniProt Q96QZ7: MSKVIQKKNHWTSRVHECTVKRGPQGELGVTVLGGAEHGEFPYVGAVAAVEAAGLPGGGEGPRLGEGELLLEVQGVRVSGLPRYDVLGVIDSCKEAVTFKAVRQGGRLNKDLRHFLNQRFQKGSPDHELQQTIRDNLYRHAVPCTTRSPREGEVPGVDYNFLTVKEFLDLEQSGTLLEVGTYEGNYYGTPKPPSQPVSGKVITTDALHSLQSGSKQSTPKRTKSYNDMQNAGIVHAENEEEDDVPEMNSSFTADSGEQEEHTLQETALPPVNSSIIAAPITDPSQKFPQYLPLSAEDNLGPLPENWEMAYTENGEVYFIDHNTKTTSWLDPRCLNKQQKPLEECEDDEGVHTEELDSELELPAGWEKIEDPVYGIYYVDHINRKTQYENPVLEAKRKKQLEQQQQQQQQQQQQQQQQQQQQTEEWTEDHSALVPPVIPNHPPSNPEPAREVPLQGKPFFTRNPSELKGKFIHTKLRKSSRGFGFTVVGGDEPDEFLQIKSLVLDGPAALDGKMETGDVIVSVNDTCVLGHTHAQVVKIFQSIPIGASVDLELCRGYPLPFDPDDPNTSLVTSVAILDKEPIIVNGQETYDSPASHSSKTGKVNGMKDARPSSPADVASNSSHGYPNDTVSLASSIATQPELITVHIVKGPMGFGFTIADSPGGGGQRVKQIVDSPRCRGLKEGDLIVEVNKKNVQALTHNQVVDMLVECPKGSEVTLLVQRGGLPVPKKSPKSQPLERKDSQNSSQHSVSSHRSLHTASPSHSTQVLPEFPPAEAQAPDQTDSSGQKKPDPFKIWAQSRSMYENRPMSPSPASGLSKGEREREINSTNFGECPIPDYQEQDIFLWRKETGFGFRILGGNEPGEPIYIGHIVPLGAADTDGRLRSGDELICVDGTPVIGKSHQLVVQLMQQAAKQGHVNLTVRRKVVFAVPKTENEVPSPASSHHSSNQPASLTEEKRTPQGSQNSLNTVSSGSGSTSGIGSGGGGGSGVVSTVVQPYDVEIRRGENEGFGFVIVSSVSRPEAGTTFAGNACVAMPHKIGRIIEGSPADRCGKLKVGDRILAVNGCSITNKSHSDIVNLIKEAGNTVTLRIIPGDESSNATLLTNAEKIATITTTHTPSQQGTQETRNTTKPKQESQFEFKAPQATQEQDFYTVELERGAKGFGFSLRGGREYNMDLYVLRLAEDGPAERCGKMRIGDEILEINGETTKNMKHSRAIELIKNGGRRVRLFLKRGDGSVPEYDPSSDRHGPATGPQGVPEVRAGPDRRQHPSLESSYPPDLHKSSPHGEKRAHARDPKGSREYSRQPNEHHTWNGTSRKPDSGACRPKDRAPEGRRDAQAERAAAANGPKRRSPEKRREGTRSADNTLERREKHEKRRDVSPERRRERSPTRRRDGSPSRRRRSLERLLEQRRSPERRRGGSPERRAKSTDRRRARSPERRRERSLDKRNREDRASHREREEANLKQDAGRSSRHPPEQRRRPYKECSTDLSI

Molecule | binding
Scribble (from UniProt Q14160 1-1655) | binds
Beta-2-syntrophin (from UniProt Q13425 1-540) | binds
MAGI1 (from UniProt Q96QZ7 1-1491) | binds
alternative NF-κB precursor protein p100 (protein, UniProt Q00653-1 1-900) MESCYNPGLDGIIEYDDFKLNSSIVEPKEPAPETADGPYLVIVEQPKQRGFRFRYGCEGPSHGGLPGASSEKGRKTYPTVKICNYEGPAKIEVDLVTHSDPPRAHAHSLVGKQCSELGICAVSVGPKDMTAQFNNLGVLHVTKKNMMGTMIQKLQRQRLRSRPQGLTEAEQRELEQEAKELKKVMDLSIVRLRFSAFLRASDGSFSLPLKPVISQPIHDSKSPGASNLKISRMDKTAGSVRGGDEVYLLCDKVQKDDIEVRFYEDDENGWQAFGDFSPTDVHKQYAIVFRTPPYHKMKIERPVTVFLQLKRKRGGDVSDSKQFTYYPLVEDKEEVQRKRRKALPTFSQPFGGGSHMGGGSGGAAGGYGGAGGGGSLGFFPSSLAYSPYQSGAGPMGCYPGGGGGAQMAATVPSRDSGEEAAEPSAPSRTPQCEPQAPEMLQRAREYNARLFGLAQRSARALLDYGVTADARALLAGQRHLLTAQDENGDTPLHLAIIHGQTSVIEQIVYVIHHAQDLGVVNLTNHLHQTPLHLAVITGQTSVVSFLLRVGADPALLDRHGDSAMHLALRAGAGAPELLRALLQSGAPAVPQLLHMPDFEGLYPVHLAVRARSPECLDLLVDSGAEVEATERQGGRTALHLATEMEELGLVTHLVTKLRANVNARTFAGNTPLHLAAGLGYPTLTRLLLKAGADIHAENEEPLCPLPSPPTSDSDSDSEGPEKDTRSSFRGHTPLDLTCSTKVKTLLLNAAQNTMEPPLTPPSPAGPGLSLGDTALQNLEQLLDGPEAQGSWAELAERLGLRSLVDTYRQTTSPSGSLLRSYELAGGDLAGLLEALSDMGLEEGVRLLRGPETRDKLPSTAEVKEDSAYGSQSVEQEAEKLGPPPEPPGGLCHGHPQPQVH | binds
Beta-1-syntrophin (protein, UniProt Q13884 1-538) MAVAAAAAAAGPAGAGGGRAQRSGLLEVLVRDRWHKVLVNLSEDALVLSSEEGAAAYNGIGTATNGSFCRGAGAGHPGAGGAQPPDSPAGVRTAFTDLPEQVPESISNQKRGVKVLKQELGGLGISIKGGKENKMPILISKIFKGLAADQTQALYVGDAILSVNGADLRDATHDEAVQALKRAGKEVLLEVKYMREATPYVKKGSPVSEIGWETPPPESPRLGGSTSDPPSSQSFSFHRDRKSIPLKMCYVTRSMALADPENRQLEIHSPDAKHTVILRSKDSATAQAWFSAIHSNVNDLLTRVIAEVREQLGKTGIAGSREIRHLGWLAEKVPGESKKQWKPALVVLTEKDLLIYDSMPRRKEAWFSPVHTYPLLATRLVHSGPGKGSPQAGVDLSFATRTGTRQGIETHLFRAETSRDLSHWTRSIVQGCHNSAELIAEISTACTYKNQECRLTIHYENGFSITTEPQEGAFPKTIIQSPYEKLKMSSDDGIRMLYLDFGGKDGEIQLDLHSCPKPIVFIIHSFLSAKITRLGLVA | binds
Lin-7 homolog C (protein, UniProt Q9NUP9 1-197) MAALGEPVRLERDICRAIELLEKLQRSGEVPPQKLQALQRVLQSEFCNAVREVYEHVYETVDISSSPEVRANATAKATVAAFAASEGHSHPRVVELPKTEEGLGFNIMGGKEQNSPIYISRIIPGGIADRHGGLKRGDQLLSVNGVSVEGEHHEKAVELLKAAQGKVKLVVRYTPKVLEEMESRFEKMRSAKRRQQT | binds

From publication PMC6428263
